Experimental data from PubChem BioAssay AID330 (DTP/NCI, 2004).
The list shows only some results of the screen, not a fair sample: it is rich in T/C values a quarter to a half above the control, in often repeated tests (any T/C) and in doses without a T/C. Further doses and runs are listed elsewhere. T/C: endpoint of the treated group in % of that of the vehicle group. Some entries give survivors of the animals treated and no T/C: the source holds a T/C of zero for them, seemingly a mark for toxic or unscored doses. Some doses without a T/C left all or most animals alive at the check, yet need not have been tolerated: the source hardly ever lists a survival T/C far under the control, and the zero likely stands for such cases as well. Counts of survivors are from the toxicity check (mostly the fifth day) where no day follows; animals may have died later. Schedule codes are those of the source, taken here to give the interval after Q, in days (D) or hours (H), and the number of doses after X. Some doses were run more than once; the results are listed from low to high. For survival time, the PubChem record calls one and a half times the control and up active, and a quarter to a half above the control has no call in these data; cut-offs in other NCI protocols can differ. Marks such as (2×) give the number of equal values in this list. Some T/C values are followed by the survivors on the day toxicity was checked, most often the fifth; without a count, all were alive then.

System: P388 leukemia ip, CD2F1 mice, survival T/C
Experiment: NCI In Vivo Anticancer Drug Screen. Data for tumor model P388 Leukemia (intraperitoneal) in CD2F1 (CDF1) mice
Conditions: T/C endpoint: median survival time, higher T/C = longer survival
[1] = dose: 200.0 mg/kg/injection, schedule: Q01DX005 (ip), vehicle: Klucel (hydroxypropylcellulose) (HPC)
[2] = dose: 25.0 mg/kg/injection, schedule: Q01DX009 (ip), vehicle: saline with Tween-80
[3] = dose: 240.0 mg/kg/injection, schedule: Q01DX005 (ip), vehicle: saline with Tween-80
[4] = dose: 100.0 mg/kg/injection, schedule: Q01DX005 (ip), vehicle: Klucel (hydroxypropylcellulose) (HPC)
[5] = dose: 50.0 mg/kg/injection, schedule: Q01DX009 (ip), vehicle: Klucel (hydroxypropylcellulose) (HPC)
[6] = dose: 100.0 mg/kg/injection, schedule: Q01DX009 (ip), vehicle: Klucel (hydroxypropylcellulose) (HPC)
[7] = dose: 120.0 mg/kg/injection, schedule: Q01DX005 (ip), vehicle: saline with Tween-80
[8] = dose: 50.0 mg/kg/injection, schedule: Q01DX009 (ip), vehicle: saline
[9] = dose: 200.0 mg/kg/injection, schedule: Q01DX009 (ip), vehicle: saline
[10] = dose: 200.0 mg/kg/injection, schedule: Q01DX005 (ip), vehicle: saline with Tween-80
[11] = dose: 200.0 mg/kg/injection, schedule: Q01DX009 (ip), vehicle: saline with Tween-80

CN(C)C1C(=O)C(C(N)=O)=C(O)C2(O)C(=O)C3=C(O)c4c(O)cccc4C(C)(O)C3CC12 (stereo not drawn)
survivor count [1]: 5 of 6

C=CC(=O)N1CN(C(=O)C=C)CN(C(=O)C=C)C1
T/C (dose: 3.12 mg/kg/injection, schedule: Q01DX009 (ip), vehicle: saline with Tween-80): 144 [5 of 6 alive] and 148 % of control [5 of 6 alive] | T/C (dose: 6.25 mg/kg/injection, schedule: Q01DX009 (ip), vehicle: saline with Tween-80): 142 % of control | T/C (dose: 12.5 mg/kg/injection, schedule: Q01DX009 (ip), vehicle: saline with Tween-80): 143 % of control | survivor count [2]: 0 of 6

CC1=CC2N(C=C1)C(c1ccc(Cl)cc1)=NON2c1cc(C)ccn1 (stereo not drawn)
survivor count (dose: 50.0 mg/kg/injection, schedule: Q01DX005 (ip), vehicle: saline with Tween-80): 6 of 6 | survivor count (dose: 60.0 mg/kg/injection, schedule: Q01DX005 (ip), vehicle: saline with Tween-80): 6 of 6

O=[N+]([O-])c1cc(NC(=S)SCc2ccccc2)ccc1Cl
survivor count (dose: 100.0 mg/kg/injection, schedule: Q01DX009 (ip), vehicle: suspension in saline): 5 of 6

CCN(CC)C(=O)c1c(C(=O)OC)c(C)n(NC(=O)c2cccc(C)c2)c1C
survivor count [3]: 6 of 6

CCOC(=O)CN1CCC2CC1c1c([nH]c3ccccc13)C2c1cc2c(cc1OC)N(C)C1C(O)(C(=O)OC)C(OC(C)=O)C3(CC)C=CCN4CCC21C43 (stereo not drawn)
survivor count (dose: 0.25 mg/kg/injection, schedule: Q01DX009 (ip), vehicle: Klucel (hydroxypropylcellulose) (HPC)): 6 of 6 | survivor count (dose: 0.5 mg/kg/injection, schedule: Q01DX009 (ip), vehicle: Klucel (hydroxypropylcellulose) (HPC)): 6 of 6 | survivor count (dose: 2.0 mg/kg/injection, schedule: Q01DX009 (ip), vehicle: Klucel (hydroxypropylcellulose) (HPC)): 6 of 6

CCOC(=O)Nc1cc2c(c(N)n1)N=C(c1ccc(N)cc1)CN2
T/C (dose: 50.0 mg/kg/injection, schedule: Q01DX001 (ip), vehicle: saline): 135 % of control [5 of 6 alive] | survivor count (dose: 100.0 mg/kg/injection, schedule: Q01DX001 (ip), vehicle: saline): 0 of 6

BrCC(Br)=C(Br)Br
survivor count [2]: 1 of 6

CC(C)NC(C#N)C(C)C (stereo not drawn)
survivor count (dose: 25.0 mg/kg/injection, schedule: Q01DX005 (ip), vehicle: Klucel (hydroxypropylcellulose) (HPC)): 0 of 6 | survivor count (dose: 50.0 mg/kg/injection, schedule: Q01DX005 (ip), vehicle: Klucel (hydroxypropylcellulose) (HPC)): 0 of 6 | survivor count [4]: 0 of 6 | survivor count [1]: 0 of 6

CC(=O)OCc1c(COC(C)=O)c(-c2ccccc2)n2c1CCC2
T/C (dose: 6.25 mg/kg/injection, schedule: Q01DX009 (ip), vehicle: Klucel (hydroxypropylcellulose) (HPC)): 125 % of control [5 of 6 alive] | T/C (dose: 25.0 mg/kg/injection, schedule: Q01DX009 (ip), vehicle: Klucel (hydroxypropylcellulose) (HPC)): 142 % of control | survivor count [5]: 6 of 6 | survivor count [6]: 3 of 6 | survivor count (dose: 200.0 mg/kg/injection, schedule: Q01DX009 (ip), vehicle: Klucel (hydroxypropylcellulose) (HPC)): 0 of 6

Nc1cc2c(cc1Br)-c1c(C(=O)O)cccc1C2O (stereo not drawn)
T/C [7]: 128 % of control | T/C (dose: 200.0 mg/kg/injection, schedule: Q01DX005 (ip), vehicle: sodium bicarbonate): 134 % of control | T/C [3]: 126 % of control | T/C (dose: 400.0 mg/kg/injection, schedule: Q01DX005 (ip), vehicle: sodium bicarbonate): 134 % of control | T/C (dose: 800.0 mg/kg/injection, schedule: Q01DX005 (ip), vehicle: sodium bicarbonate): 130 % of control

Clc1ccc2nc(CI)c(CI)nc2c1
survivor count (dose: 200.0 mg/kg/injection, schedule: Q04DX003 (ip), vehicle: saline with Tween-80): 0 of 6

CC([OH2+])CNCCN.CC([OH2+])CNCCN.[Ni+2].[O-][Cl+3]([O-])([O-])[O-] (stereo not drawn)
survivor count [8]: 6 of 6

Fc1ccc(F)c(C(Nc2nncs2)Nc2nncs2)c1
T/C [7]: 126 % of control (2×)

CCNC(=O)n1cccc(OC)c1=O
T/C [9]: 135 % of control | survivor count (dose: 400.0 mg/kg/injection, schedule: Q01DX009 (ip), vehicle: saline): 1 of 6

Br[CH](Br)[Hg][c]1ccccc1
survivor count (dose: 400.0 mg/kg/injection, schedule: Q01DX001 (ip), vehicle: Klucel (hydroxypropylcellulose) (HPC)): 1 of 6

CCn1c2nc(=O)[nH]c(=O)c-2[n+]([O-])c2ccccc21
survivor count (dose: 100.0 mg/kg/injection, schedule: Q01DX001 (ip), vehicle: saline with Tween-80): 0 of 6 | survivor count (dose: 200.0 mg/kg/injection, schedule: Q01DX001 (ip), vehicle: saline with Tween-80): 0 of 6 | survivor count (dose: 400.0 mg/kg/injection, schedule: Q01DX001 (ip), vehicle: saline with Tween-80): 0 of 6

O=C1C=CC(=O)C(C2OC(=O)C(Cl)=C2Cl)=C1 (stereo not drawn)
survivor count [10]: 2 of 6

CC(=O)NCc1cc(C)c(CCl)cc1CCl
survivor count (dose: 25.0 mg/kg/injection, schedule: Q01DX009 (ip), vehicle: distilled water + Tween-80): 3 of 3 | survivor count (dose: 50.0 mg/kg/injection, schedule: Q01DX009 (ip), vehicle: distilled water + Tween-80): 0 of 3 and 3 of 6 | survivor count (dose: 100.0 mg/kg/injection, schedule: Q01DX009 (ip), vehicle: distilled water + Tween-80): 0 of 3

Clc1ccc(Nc2c3ccccc3nc3c2cnn3-c2ccccc2)cc1
survivor count (dose: 60.0 mg/kg/injection, schedule: Q01DX005 (ip), vehicle: Klucel (hydroxypropylcellulose) (HPC)): 6 of 6

CC(=O)ON=C1C=CC(=C(C#N)c2ccccc2)C=C1
survivor count [11]: 4 of 6

c1ccc([N-][n+]2ccc3ccccc3c2)cc1
survivor count [8]: 0 of 6 | survivor count (dose: 100.0 mg/kg/injection, schedule: Q01DX009 (ip), vehicle: saline): 0 of 6 | survivor count [9]: 0 of 6

N=C(N)c1ccc2cc(C(=N)N)[nH]c2c1
survivor count (dose: 100.0 mg/kg/injection, schedule: Q04DX003 (ip), vehicle: saline): 0 of 6 | survivor count (dose: 200.0 mg/kg/injection, schedule: Q04DX003 (ip), vehicle: saline): 0 of 6 | survivor count (dose: 400.0 mg/kg/injection, schedule: Q04DX003 (ip), vehicle: saline): 0 of 6

Cc1c2cccc(F)c2c[n+]2ccccc12
survivor count [5]: 0 of 6 | survivor count [6]: 0 of 6

COC(=O)[C@@]12OC[C@]34[C@H]([C@@H](O)[C@@H]1O)[C@@]1(C)CC(=O)C(OC(=O)CC(=O)OC5=C(C)[C@@H]6C[C@H]7OC(=O)[C@H](OC(=O)C=C(C)C)[C@H]8[C@]9(C(=O)OC)OC[C@]78[C@H]([C@@H](O)[C@@H]9O)[C@@]6(C)CC5=O)=C(C)[C@@H]1C[C@H]3OC(=O)[C@H](OC(=O)C=C(C)C)[C@@H]24
T/C (dose: 0.38 mg/kg/injection, schedule: Q01DX009 (ip), vehicle: saline + Tween-80 + alcohol): 131 % of control | T/C (dose: 0.75 mg/kg/injection, schedule: Q01DX009 (ip), vehicle: saline + Tween-80 + alcohol): 131 % of control | T/C (dose: 1.5 mg/kg/injection, schedule: Q01DX009 (ip), vehicle: saline + Tween-80 + alcohol): 135 % of control | T/C (dose: 3.0 mg/kg/injection, schedule: Q01DX009 (ip), vehicle: saline + Tween-80 + alcohol): 131 % of control

COc1cc(OC)cc(N2C(N)=NC(N)=NC2(C)C)c1
survivor count [4]: 0 of 6 | survivor count [1]: 0 of 6

CCCCCCCCCCCCCCCCCC(=O)OCC(=O)OCC(=O)[C@]1(O)Cc2c(O)c3c(c(O)c2[C@@H](OC2CC(N)C(O)C(C)O2)C1)C(=O)c1c(OC)cccc1C3=O (stereo partly drawn)
survivor count (dose: 12.5 mg/kg/injection, schedule: Q01DX009 (ip), vehicle: water): 6 of 6 | survivor count (dose: 25.0 mg/kg/injection, schedule: Q01DX009 (ip), vehicle: water): 1 of 6

CN(C)/C=C1\C(C(C)(C)C)=CC(C(C)(C)C)=C1N=O
survivor count (dose: 240.0 mg/kg/injection, schedule: Q01DX005 (ip), vehicle: Klucel (hydroxypropylcellulose) (HPC)): 1 of 6

OC(c1cc(C(F)(F)F)nc2c(Cl)cc(Cl)cc12)C1CCCCN1 (stereo not drawn)
survivor count [11]: 4 of 6

CCOC(=O)C1=C(O)C[C@]2(O)C3CC=C(C)[C@@H]4CCO[C@](OC)(C[C@H]2C1)[C@]34C(=O)OC (stereo partly drawn)
survivor count [10]: 6 of 6
